Test results published in PubChem BioAssay AID322 (DTP/NCI, 2004).
The list does not hold the whole screen: it gathers tests that were run many times, whatever their T/C, doses with no T/C, and many T/C values between a quarter and a half above the control. Other doses and runs of a compound stand elsewhere. T/C is the treated group as % of the vehicle group. Some entries give survivors of the animals treated and no T/C: the source holds a T/C of zero for them, seemingly a mark for toxic or unscored doses. Some survivor counts are full or nearly so, which does not show that the dose was tolerated: survival well below the control is almost never listed, so the zero probably covers shortened survival too. Survivors were counted at the toxicity check, usually on the fifth day, unless a day is given; later deaths do not show. Schedules are NCI's codes, taken here to give the interval after Q, in days (D) or hours (H), and the number of doses after X. Some entries were tested several times; their values stand side by side, smallest first. Brackets with × stand for listed records that agree. For survival time, the PubChem record calls one and a half times the control and up active, and a quarter to a half above the control has no call in these data; cut-offs in other NCI protocols can differ. Some T/C values are followed by the survivors on the day toxicity was checked, most often the fifth; where none is given, no animal had died by that day.

Tested on: CD2F1 mice, P388/ADR leukemia ip, median survival T/C
Assay: NCI In Vivo Anticancer Drug Screen. Data for tumor model P388 Leukemia resistant to Adriamycin; NSC 123127, Developed at Scr 08 (intraperitoneal) in CD2F1 (CDF1) mice
Conditions: T/C endpoint: median survival time, higher T/C = longer survival
Procedure: The antitumor activity of compounds was measured in mice bearing transplantable tumors. Survival or tumor size were measured and the results are expressed as the measurement made in the treated group (T) divided by the measurement made in the vehicle treated control group (C). The tumor model used in this assay is P388 Leukemia resistant to Adriamycin; NSC 123127, Developed at Scr 08 (intraperitoneal) in CD2F1 (CDF1) mice

## CC[C@]1(O)C[C@H]2CN(CCc3c([nH]c4ccccc34)[C@@](C(=O)OC)(c3cc4c(cc3OC)N(C=O)[C@H]3[C@@](O)(C(=O)OC)[C@H](OC(C)=O)[C@]5(CC)C=CCN6CC[C@]43[C@@H]65)C2)C1
dose: 1.0 mg/kg/injection, schedule: Q04DX003 (ip), vehicle: saline, evaluated on day 20
  T/C: 100 % of control
dose: 1.0 mg/kg/injection, schedule: Q04DX003 (ip), vehicle: saline, evaluated on day 27
  T/C: 102 % of control
dose: 1.0 mg/kg/injection, schedule: Q04DX003 (ip), vehicle: saline, evaluated on day 30
  T/C: 86 (2×), 89 (2×), 90 (3×), 92 (2×), 93 (4×), 94 (2×), 95 (5×), 96, 97 (9×), 98 (6×), 98 [9 of 10 alive], 99 (2×), 100 (4×), 101 (2×), 102 (2×), 104, 105, 106 (2×), 111 % of control
dose: 1.0 mg/kg/injection, schedule: Q04DX003 (ip), vehicle: saline, evaluated on day 45
  T/C: 95, 97 (2×), 99, 102, 103, 108 % of control
dose: 1.0 mg/kg/injection, schedule: Q04DX003 (ip), vehicle: saline, evaluated on day 56
  T/C: 99 % of control
dose: 1.0 mg/kg/injection, schedule: Q04DX003 (ip), vehicle: saline, evaluated on day 60
  T/C: 102 and 105 % of control
dose: 1.0 mg/kg/injection, schedule: Q04DX003 (ip), vehicle: saline
  survivor count: 10 of 10 (3×) and 6 of 6
dose: 1.5 mg/kg/injection, schedule: Q04DX003 (ip), vehicle: saline, evaluated on day 20
  T/C: 90 and 101 % of control
dose: 1.5 mg/kg/injection, schedule: Q04DX003 (ip), vehicle: saline, evaluated on day 23
  T/C: 86 % of control
dose: 1.5 mg/kg/injection, schedule: Q04DX003 (ip), vehicle: saline, evaluated on day 27
  T/C: 102 % of control
dose: 1.5 mg/kg/injection, schedule: Q04DX003 (ip), vehicle: saline, evaluated on day 30
  T/C: 87 (2×), 88 (2×), 89 (2×), 90, 90 [9 of 10 alive] (2×), 91, 92, 93 (7×), 93 [9 of 10 alive], 94 (7×), 95, 96 (5×), 96 [9 of 10 alive], 97 (5×), 98 (4×), 99, 100 (3×), 101 (2×), 102 (3×), 103, 106 % of control
dose: 1.5 mg/kg/injection, schedule: Q04DX003 (ip), vehicle: saline, evaluated on day 45
  T/C: 96, 97 (2×), 98 (2×), 99, 100, 102 % of control
dose: 1.5 mg/kg/injection, schedule: Q04DX003 (ip), vehicle: saline, evaluated on day 56
  T/C: 98 % of control
dose: 1.5 mg/kg/injection, schedule: Q04DX003 (ip), vehicle: saline, evaluated on day 60
  T/C: 101 and 104 % of control
dose: 1.5 mg/kg/injection, schedule: Q04DX003 (ip), vehicle: saline
  survivor count: 10 of 10 and 6 of 6
dose: 2.0 mg/kg/injection, schedule: Q04DX003 (ip), vehicle: saline, evaluated on day 20
  T/C: 100 % of control
dose: 2.0 mg/kg/injection, schedule: Q04DX003 (ip), vehicle: saline, evaluated on day 27
  T/C: 102 % of control
dose: 2.0 mg/kg/injection, schedule: Q04DX003 (ip), vehicle: saline, evaluated on day 30
  T/C: 86, 87 (2×), 88 (4×), 90 (3×), 91 (2×), 92, 92 [8 of 10 alive], 93 (2×), 93 [7 of 8 alive], 94 (4×), 95 (2×), 96 (4×), 96 [9 of 10 alive], 97 (5×), 98 (7×), 100 (3×), 101 (5×), 102 % of control [8 of 10 alive]
dose: 2.0 mg/kg/injection, schedule: Q04DX003 (ip), vehicle: saline, evaluated on day 45
  T/C: 96 (2×), 97, 98 (2×), 102 (2×), 107 % of control [9 of 10 alive]
dose: 2.0 mg/kg/injection, schedule: Q04DX003 (ip), vehicle: saline, evaluated on day 56
  T/C: 91 % of control
dose: 2.0 mg/kg/injection, schedule: Q04DX003 (ip), vehicle: saline, evaluated on day 60
  T/C: 101 and 106 % of control
dose: 2.0 mg/kg/injection, schedule: Q04DX003 (ip), vehicle: saline
  survivor count: 9 of 10, 10 of 10 (3×), 6 of 6
dose: 3.0 mg/kg/injection, schedule: Q04DX003 (ip), vehicle: saline, evaluated on day 27
  T/C: 103 % of control
dose: 3.0 mg/kg/injection, schedule: Q04DX003 (ip), vehicle: saline, evaluated on day 30
  T/C: 86, 87 (4×), 89, 89 [9 of 10 alive] (2×), 90, 90 [9 of 10 alive], 91, 91 [7 of 10 alive], 92 (5×), 92 [9 of 10 alive], 93 (2×), 94, 95, 96 (8×), 97, 98 (3×), 99 (2×), 100 (2×), 102, 106 % of control (2×)
dose: 3.0 mg/kg/injection, schedule: Q04DX003 (ip), vehicle: saline, evaluated on day 45
  T/C: 92 [8 of 10 alive], 96 (2×), 98 (2×), 100, 101, 104 % of control
dose: 3.0 mg/kg/injection, schedule: Q04DX003 (ip), vehicle: saline, evaluated on day 56
  T/C: 92 % of control
dose: 3.0 mg/kg/injection, schedule: Q04DX003 (ip), vehicle: saline, evaluated on day 60
  T/C: 101 and 104 % of control
dose: 3.0 mg/kg/injection, schedule: Q04DX003 (ip), vehicle: saline
  survivor count: 6 of 10, 8 of 10, 9 of 10 (2×), 10 of 10 (3×), 6 of 6

## C=C1c2cccc(O)c2C(O)=C2C(=O)[C@]3(O)C(O)=C(C(N)=O)C(=O)[C@@H](N(C)C)[C@@H]3[C@@H](O)[C@H]12
dose: 100.0 mg/kg/injection, schedule: Q01DX005 (ip), vehicle: Klucel (hydroxypropylcellulose) (HPC)
  T/C: 133 % of control
dose: 166.67 mg/kg/injection, schedule: Q01DX005 (ip), vehicle: Klucel (hydroxypropylcellulose) (HPC)
  T/C: 129 % of control [9 of 10 alive]
dose: 277.77 mg/kg/injection, schedule: Q01DX005 (ip), vehicle: Klucel (hydroxypropylcellulose) (HPC)
  survivor count: 4 of 10
dose: 400.0 mg/kg/injection, schedule: Q01DX005 (ip), vehicle: Klucel (hydroxypropylcellulose) (HPC)
  survivor count: 0 of 10

## O=C(O)Cc1cccc2c(=O)cc(-c3ccccc3)oc12
dose: 30.0 mg/kg/injection, schedule: Q01DX009 (ip), vehicle: sodium bicarbonate
  T/C: 138 % of control
dose: 44.0 mg/kg/injection, schedule: Q01DX009 (ip), vehicle: saline
  T/C: 138 % of control
dose: 44.0 mg/kg/injection, schedule: Q01DX009 (ip), vehicle: sodium bicarbonate
  T/C: 147 % of control
dose: 67.0 mg/kg/injection, schedule: Q01DX005 (ip), vehicle: saline
  T/C: 148 % of control
dose: 100.0 mg/kg/injection, schedule: Q01DX009 (ip), vehicle: saline
  T/C: 143 % of control
dose: 200.0 mg/kg/injection, schedule: Q04DX002 (ip), vehicle: sodium bicarbonate
  T/C: 134 % of control

## COC(=O)[C@@]12OC[C@]34[C@H]([C@@H](O)[C@@H]1O)[C@@]1(C)CC(=O)C(OC(=O)CC(=O)OC5=C(C)[C@@H]6C[C@H]7OC(=O)[C@H](OC(=O)/C=C(\C)C(C)C)[C@H]8[C@]9(C(=O)OC)OC[C@]78[C@H]([C@@H](O)[C@@H]9O)[C@@]6(C)CC5=O)=C(C)[C@@H]1C[C@H]3OC(=O)[C@H](OC(=O)/C=C(\C)C(C)C)[C@@H]24
dose: 0.37 mg/kg/injection, schedule: Q01DX005 (ip), vehicle: saline + Tween-80 + alcohol
  T/C: 126 % of control
dose: 0.75 mg/kg/injection, schedule: Q01DX005 (ip), vehicle: saline + Tween-80 + alcohol
  T/C: 134 % of control
dose: 1.5 mg/kg/injection, schedule: Q01DX005 (ip), vehicle: saline + Tween-80 + alcohol
  T/C: 140 % of control
dose: 3.0 mg/kg/injection, schedule: Q01DX005 (ip), vehicle: saline + Tween-80 + alcohol
  T/C: 130 % of control
dose: 6.0 mg/kg/injection, schedule: Q01DX005 (ip), vehicle: saline + Tween-80 + alcohol
  T/C: 130 % of control

## CO[C@H]1C[C@](C)(O)Cc2cc3c(c(O)c21)C(=O)c1c(O)cc2c(c1C3=O)O[C@@H]1O[C@@]2(C)[C@H](O)[C@@H](N(C)C)[C@@H]1O
dose: 6.7 mg/kg/injection, schedule: Q01DX009 (ip), vehicle: other
  T/C: 145 % of control
dose: 10.0 mg/kg/injection, schedule: Q01DX009 (ip), vehicle: other
  T/C: 145 % of control
dose: 15.0 mg/kg/injection, schedule: Q01DX009 (ip), vehicle: other
  T/C: 146 % of control
dose: 22.5 mg/kg/injection, schedule: Q01DX009 (ip), vehicle: other
  T/C: 133 % of control

## O=C1C=C(N2CC2)C(=O)C(N2CC2)=C1N1CC1
dose: 0.02 mg/kg/injection, schedule: Q01DX005 (ip), vehicle: saline
  T/C: 140 % of control

## N[C@@H](Cc1ccc(N(CCCl)CCCl)cc1)C(=O)O
dose: 8.0 mg/kg/injection, schedule: Q01DX005 (ip), vehicle: saline
  survivor count: 9 of 10

## CN(C)CCN1C(=O)c2cccc3cc(N)cc(c23)C1=O
dose: 11.0 mg/kg/injection, schedule: Q01DX009 (ip), vehicle: saline with Tween-80
  T/C: 129 % of control

## CN=C(NC)c1ccc(NC(=O)/C=C\c2ccc(/C=C/C(=O)Nc3ccc(C(=NC)NC)cc3)cc2)cc1
dose: 12.5 mg/kg/injection, schedule: Q01DX005 (ip), vehicle: Klucel (hydroxypropylcellulose) (HPC)
  T/C: 144 % of control
dose: 25.0 mg/kg/injection, schedule: Q01DX005 (ip), vehicle: Klucel (hydroxypropylcellulose) (HPC)
  T/C: 131 % of control [9 of 10 alive]

## COc1cc2c(c3c1c(=O)c1ccccc1n3C)C=CC(C)(C)O2
dose: 100.0 mg/kg/injection, schedule: Q01DX005 (ip), vehicle: saline with Tween-80
  survivor count: 10 of 10
dose: 200.0 mg/kg/injection, schedule: Q01DX005 (ip), vehicle: saline with Tween-80
  survivor count: 0 of 10
